Source: paper PMC8055684
These are yes or no findings as the source states them, for the method shown. For some assays here: Binding seen in cells or lysates may run through a third protein. Some entries that bind do so weakly or less than the wild type.

The chains behind the UniProt entries cited, without tags or fusion partners.
UniProt Q9H0A8: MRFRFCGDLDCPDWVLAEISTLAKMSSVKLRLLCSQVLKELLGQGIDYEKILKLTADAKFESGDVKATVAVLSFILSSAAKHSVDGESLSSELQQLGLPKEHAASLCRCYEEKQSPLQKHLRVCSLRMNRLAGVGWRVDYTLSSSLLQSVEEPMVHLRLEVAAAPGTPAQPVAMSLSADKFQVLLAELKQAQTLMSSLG
UniProt Q9BQ15: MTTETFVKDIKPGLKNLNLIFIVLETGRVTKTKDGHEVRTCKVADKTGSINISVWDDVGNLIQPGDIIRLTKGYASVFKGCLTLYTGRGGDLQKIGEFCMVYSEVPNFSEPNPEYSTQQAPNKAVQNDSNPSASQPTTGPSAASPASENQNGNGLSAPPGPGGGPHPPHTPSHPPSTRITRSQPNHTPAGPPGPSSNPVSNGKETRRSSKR
UniProt Q5VTR2: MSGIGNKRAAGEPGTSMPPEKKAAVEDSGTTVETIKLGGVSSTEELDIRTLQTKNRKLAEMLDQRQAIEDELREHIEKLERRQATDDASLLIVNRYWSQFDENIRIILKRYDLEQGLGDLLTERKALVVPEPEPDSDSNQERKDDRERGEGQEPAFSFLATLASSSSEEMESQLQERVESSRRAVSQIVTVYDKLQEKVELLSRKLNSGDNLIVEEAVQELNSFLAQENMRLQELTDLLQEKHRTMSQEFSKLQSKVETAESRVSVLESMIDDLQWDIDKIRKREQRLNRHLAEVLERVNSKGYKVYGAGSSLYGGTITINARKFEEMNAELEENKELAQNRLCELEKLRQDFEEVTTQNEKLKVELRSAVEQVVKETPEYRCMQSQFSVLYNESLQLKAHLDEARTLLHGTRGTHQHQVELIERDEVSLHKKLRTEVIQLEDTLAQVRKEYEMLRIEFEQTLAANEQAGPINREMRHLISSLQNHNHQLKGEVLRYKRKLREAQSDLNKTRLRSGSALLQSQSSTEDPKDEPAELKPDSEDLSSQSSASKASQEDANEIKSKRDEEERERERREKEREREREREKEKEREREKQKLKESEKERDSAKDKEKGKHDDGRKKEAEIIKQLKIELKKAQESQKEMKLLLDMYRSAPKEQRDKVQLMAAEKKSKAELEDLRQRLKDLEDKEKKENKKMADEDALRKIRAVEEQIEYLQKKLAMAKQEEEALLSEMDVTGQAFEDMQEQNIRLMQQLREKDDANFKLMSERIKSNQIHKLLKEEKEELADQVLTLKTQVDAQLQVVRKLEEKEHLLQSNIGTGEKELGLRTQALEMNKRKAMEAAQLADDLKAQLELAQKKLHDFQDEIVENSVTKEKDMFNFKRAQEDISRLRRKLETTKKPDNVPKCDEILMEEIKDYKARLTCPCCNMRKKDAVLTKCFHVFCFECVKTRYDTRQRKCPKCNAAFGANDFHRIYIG

Experiments:
COMMD4-FLAG = COMMD4-FLAG (UniProt Q9H0A8); experiment: co-IP; COMMD4 and hSSB1 in cells; bait and constructs not shown (Supplementary Fig. 4a)
[1] = target: COMMD4, purified (construct not stated; in vitro binding assay with RNF20 and RNF40) (UniProt Q9H0A8); experiment: in vitro binding assay; purified proteins; COMMD4 with RNF20 or RNF40; details not shown (Supplementary Fig. 4d-f); both purified

| Substance | binding (COMMD4-FLAG) | binding [1] |
| --- | --- | --- |
| hSSB1 in cells (co-immunoprecipitation) (from UniProt Q9BQ15 1-211) | binds |  |
| recombinant active human RNF20 (from UniProt Q5VTR2 1-975) (enzyme) |  | binds |
